A: 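Enzyme assay of tryptophanyl-tRNA synthetase; the read-out is not stated. Target: Tryptophan-tRNA ligase, Mycobacterium tuberculosis (UniProt P9WFT3). Concentration: 10 µM. Higher most likely means stronger inhibition; the record gives no direction and few retests gave an IC50. About 65,000 compounds were tested under these conditions; 0.098% (about 64) showed 50% or more at least once.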
B: 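Cell assay of Leishmania donovani living inside macrophages; the read-out is not stated. Compounds at 30 µM. The record gives no direction; compounds that gave an IC50 in retests scored well above the rest, so higher reads as stronger inhibition. Size under these conditions: about 69,000 compounds, about 1,000 of them at 50% or above in at least one test.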
C: 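Enzyme assay of the thioesterase domain of polyketide synthase 13; the read-out is not stated. Target: Polyketide synthase Pks13, Mycobacterium tuberculosis (UniProt I6X8D2). Concentration: 30 µM. Higher reads as stronger inhibition (inferred from which compounds were picked for retests). Size under these conditions: about 67,000 compounds, about 300 of them at 50% or above in at least one test.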
D: 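Enzyme assay of histidyl-tRNA synthetase; the read-out is not stated. Target: Histidine-tRNA ligase, Trypanosoma cruzi CL Brener (UniProt Q4DA54). Concentration: 30 µM. The record gives no direction; compounds that gave an IC50 in retests scored well above the rest, so higher reads as stronger inhibition. About 69,000 compounds were tested under these conditions; 0.045% (about 31) showed 50% or more at least once.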

Chains of the proteins cited; added tags and fusions are not shown. Residues count along the entry.
UniProt P9WFT3, whole entry: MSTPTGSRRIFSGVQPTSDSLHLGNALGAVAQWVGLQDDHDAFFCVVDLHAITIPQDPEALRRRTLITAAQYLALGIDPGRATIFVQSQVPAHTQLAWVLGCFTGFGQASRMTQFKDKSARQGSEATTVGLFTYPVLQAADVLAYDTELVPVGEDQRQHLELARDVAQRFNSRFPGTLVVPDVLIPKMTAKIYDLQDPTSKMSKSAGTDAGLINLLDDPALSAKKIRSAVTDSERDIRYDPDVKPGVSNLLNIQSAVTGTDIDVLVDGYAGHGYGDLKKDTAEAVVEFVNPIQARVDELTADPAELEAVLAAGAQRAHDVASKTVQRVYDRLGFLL
UniProt I6X8D2, whole entry: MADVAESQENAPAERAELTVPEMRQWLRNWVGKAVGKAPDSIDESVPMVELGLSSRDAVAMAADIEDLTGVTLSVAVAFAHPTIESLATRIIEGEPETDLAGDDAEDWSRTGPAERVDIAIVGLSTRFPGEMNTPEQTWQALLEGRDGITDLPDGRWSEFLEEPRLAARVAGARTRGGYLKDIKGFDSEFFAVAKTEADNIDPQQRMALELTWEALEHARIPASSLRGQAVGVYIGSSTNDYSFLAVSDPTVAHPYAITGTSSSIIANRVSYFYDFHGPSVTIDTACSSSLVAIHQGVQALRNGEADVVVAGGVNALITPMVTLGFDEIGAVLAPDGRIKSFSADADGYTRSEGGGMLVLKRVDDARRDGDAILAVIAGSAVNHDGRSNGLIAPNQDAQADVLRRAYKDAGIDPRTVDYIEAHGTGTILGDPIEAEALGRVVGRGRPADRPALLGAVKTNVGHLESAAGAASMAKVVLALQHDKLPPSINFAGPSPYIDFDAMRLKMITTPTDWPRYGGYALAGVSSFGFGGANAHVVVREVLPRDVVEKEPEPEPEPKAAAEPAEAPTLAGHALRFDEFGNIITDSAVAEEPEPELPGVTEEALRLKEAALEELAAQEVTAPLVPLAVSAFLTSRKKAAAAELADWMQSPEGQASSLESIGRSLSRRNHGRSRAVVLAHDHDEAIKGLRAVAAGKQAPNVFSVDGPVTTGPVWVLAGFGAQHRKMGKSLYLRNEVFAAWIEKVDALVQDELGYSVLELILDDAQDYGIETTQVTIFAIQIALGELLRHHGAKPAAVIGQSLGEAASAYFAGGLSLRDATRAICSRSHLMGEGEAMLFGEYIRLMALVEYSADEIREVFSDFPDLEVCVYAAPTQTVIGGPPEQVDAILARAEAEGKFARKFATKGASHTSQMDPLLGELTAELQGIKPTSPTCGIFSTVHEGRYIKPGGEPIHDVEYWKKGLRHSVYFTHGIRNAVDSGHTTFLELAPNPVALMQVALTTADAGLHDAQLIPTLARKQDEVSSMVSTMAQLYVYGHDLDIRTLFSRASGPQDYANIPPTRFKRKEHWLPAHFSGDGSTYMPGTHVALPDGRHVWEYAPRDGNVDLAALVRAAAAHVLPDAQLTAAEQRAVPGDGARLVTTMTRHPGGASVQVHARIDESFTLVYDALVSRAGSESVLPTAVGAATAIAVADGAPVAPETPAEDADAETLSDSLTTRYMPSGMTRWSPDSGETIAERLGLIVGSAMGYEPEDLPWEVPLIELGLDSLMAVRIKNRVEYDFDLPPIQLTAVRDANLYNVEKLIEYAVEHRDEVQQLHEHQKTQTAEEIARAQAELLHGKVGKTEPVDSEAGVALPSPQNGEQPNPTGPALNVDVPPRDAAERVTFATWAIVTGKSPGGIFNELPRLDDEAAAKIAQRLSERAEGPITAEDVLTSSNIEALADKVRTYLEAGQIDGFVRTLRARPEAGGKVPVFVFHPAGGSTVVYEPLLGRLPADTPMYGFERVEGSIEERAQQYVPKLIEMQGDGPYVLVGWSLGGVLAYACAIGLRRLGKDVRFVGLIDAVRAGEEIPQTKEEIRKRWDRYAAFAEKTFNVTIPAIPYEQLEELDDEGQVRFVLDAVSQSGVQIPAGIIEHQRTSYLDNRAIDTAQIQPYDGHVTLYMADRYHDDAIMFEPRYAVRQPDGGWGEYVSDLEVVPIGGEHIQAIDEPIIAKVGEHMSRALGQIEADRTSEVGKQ
UniProt Q4DA54, 1-478: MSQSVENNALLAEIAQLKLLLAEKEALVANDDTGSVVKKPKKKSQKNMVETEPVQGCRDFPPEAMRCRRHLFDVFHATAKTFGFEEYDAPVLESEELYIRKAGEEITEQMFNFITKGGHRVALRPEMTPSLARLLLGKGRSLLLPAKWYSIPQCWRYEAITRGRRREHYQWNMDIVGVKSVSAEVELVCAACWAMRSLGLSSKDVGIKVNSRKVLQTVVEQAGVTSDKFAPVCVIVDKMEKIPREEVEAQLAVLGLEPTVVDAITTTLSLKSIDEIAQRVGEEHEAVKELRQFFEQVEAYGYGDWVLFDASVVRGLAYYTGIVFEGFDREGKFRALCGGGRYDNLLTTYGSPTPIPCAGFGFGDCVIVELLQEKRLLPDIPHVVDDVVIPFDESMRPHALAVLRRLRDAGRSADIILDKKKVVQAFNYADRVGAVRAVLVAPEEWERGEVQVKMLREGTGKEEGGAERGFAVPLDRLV

The filed quantity is “Percent Effect” (%).
The controls that fix the scale are not given in the record; negative values are as filed.
Compounds were drawn at random from those tested, without regard to their results.
A dash means the value is not listed here; it may have been measured.

{"smiles": "Cn1ncc(Cl)c1C(=O)N1CCc2nc3sccc3c(=O)n2CC1", "A": 5.02, "B": -1.861, "C": -30.07, "D": 2.281}
{"smiles": "CN1[C@H]2CC[C@@H]1CN(C(=O)CCc1csc(N)n1)CC2", "A": -2.43, "C": -5.971, "D": -12.24}
{"smiles": "Cc1csc(C2CCCCN2C(=O)c2c[nH]c(C)n2)n1", "stereo": "stereo unspecified", "A": -3.336, "B": 22.95, "C": -15.03, "D": 2.286}
{"smiles": "O=C(O)C(F)(F)F.O=C(O)C(F)(F)F.[H][C@@]12CCN(CC3CCOCC3)[C@@]1([H])CCN2Cc1c(C)noc1C", "B": 6.986}
{"smiles": "CSCC1CCCN1CCc1ccncc1", "stereo": "stereo unspecified", "A": -1.801, "B": -9.841, "C": 3.446, "D": 10.31}
{"smiles": "COC(C)(C)CC(C)NC(=O)Nc1ccccn1", "stereo": "stereo unspecified", "A": -5.299, "B": 48.89, "C": -17.08, "D": -15.51}
{"smiles": "Cc1cccc(S(=O)(=O)N2C[C@@H]3C[C@@H](c4nnc(C)[nH]4)O[C@@H]3C2)c1", "C": 9.965, "D": 11.73}
{"smiles": "COCCN(C)C(C(=O)O)c1ccc(F)c(C)c1", "stereo": "stereo unspecified", "A": -3.904, "B": 7.085, "C": 0.1239, "D": 3.509}
{"smiles": "O=C(O)C(F)(F)F.O=C(O)C(F)(F)F.c1ccc(CN2CCOCC3(CCN(C4CCOCC4)C3)C2)cc1", "stereo": "stereo unspecified", "B": 10.43}
{"smiles": "N#Cc1ccc(CN2CCC(c3ccnn3CCO)CC2)cc1", "A": 1.267, "B": 3.052, "C": -4.952, "D": 1.515}
{"smiles": "O=C(NCCN1CCCS1(=O)=O)c1scnc1Cl", "A": -7.484, "B": -16.97, "C": -15.8, "D": 2.312}
{"smiles": "Cc1ccc(O[C@@H]2C[C@H]3CN(C(=O)Cc4ccccn4)CCN3C2)cc1", "A": 11.88, "C": -44.97, "D": 9.804}
{"smiles": "CCCNC(=O)[C@@H]1CCCN1[C@@H](C(=O)NC)C1CC1.Cl", "B": -2.357}
{"smiles": "O=C(O)C(F)(F)F.[H][C@@]12CN(C(=O)CCOC)C[C@]1([H])C(=O)N(Cc1cccnc1)C2", "B": 11.21}
{"smiles": "CCCc1cc(CN(C)C2CCSCC2)n[nH]1", "A": -0.7524, "B": 42.41, "C": -21.33, "D": -1.961}
{"smiles": "CN(CCCc1cc(-c2cccc(F)c2)n[nH]1)C(=O)Cn1cncn1", "A": 0.3636, "B": 34.04, "C": -10.48, "D": 7.097}
{"smiles": "CC(O)CNCc1ccc(OCc2ccc3c(c2)OCCO3)cc1", "stereo": "stereo unspecified", "A": -9.004, "C": -15.72, "D": 3.261}
{"smiles": "CC(C)Cc1nc(CCn2cncn2)n(-c2ccc3c(c2)OCCO3)n1", "A": 5.376, "B": 10.72, "C": -9.279, "D": 7.179}
{"smiles": "CS(=O)(=O)c1ccccc1C(=O)NCC1Cc2ccccc2O1", "stereo": "stereo unspecified", "A": -0.4989, "B": 35.83, "C": -8.218, "D": 2.479}
{"smiles": "Cc1cccc(CN2CC[C@@H]3[C@@H](CO[C@H]3CNc3ncccn3)C2)n1", "A": -2.571, "C": -4.352, "D": 10.48}
{"smiles": "Cc1cccc(CN2CCc3ncnc(Oc4cccnc4)c3CC2)n1", "A": 6.655, "B": -11.16, "D": 9.045}
{"smiles": "Cc1ccc(C(=O)N2CCN(CCCSCC#N)CC2)cc1F", "A": 0.6478, "B": 32.55, "C": -3.809, "D": 8.04}
{"smiles": "CC(C)(C)c1cc(C[C@H]2CNCC[C@H]2CC(=O)N2CCCCC2)no1", "A": -3.253, "B": 5.173, "C": 3.766, "D": 2.488}
{"smiles": "Cn1cc(CN2CCCC3(CCN(C(=O)c4ccccn4)C3)C2)cn1.O=C(O)C(F)(F)F.O=C(O)C(F)(F)F.O=C(O)C(F)(F)F", "stereo": "stereo unspecified", "B": 77.43}

Repeated from the top, 2 entries:

SMILES,A,B,C,D
Cn1ncc(Cl)c1C(=O)N1CCc2nc3sccc3c(=O)n2CC1,5.02,-1.861,-30.07,2.281
CN1[C@H]2CC[C@@H]1CN(C(=O)CCc1csc(N)n1)CC2,-2.43,-,-5.971,-12.24

From ChEMBL document CHEMBL3988442, “University of Dundee, Small-Polar-MMV Screening Library” (2021).